Results reported in patent US12226450B2, “Peptides and methods for treating disease” (OP-T LLC, priority 2019, dated 2025).
Part of at least one peptide drawing is inferred or uncertain, most often the ends. Where no end group is shown, it is not given here.

System: diabetic dogs
Experiment: Blood and urine glucose in diabetic dogs treated by IV infusion
Type: in vivo, dog
Details: all treated dogs; compared to >500 mg/dl prior to treatment

## VLRWAPKGYYTISSN [SEQ ID NO: 13, VLRWAPKGYYTISSN]
  glucose spikes, high during treatment: ≤ 300 mg/dL
